Source: PubChem BioAssay AID234 (DTP/NCI, 2004)
The list shows only some results of the screen, not a fair sample: its compounds were picked by chemical class. Not every dose and run of a compound is shown. T/C: endpoint of the treated group in % of that of the vehicle group. Some T/C values are marked as having no survivor count here; that says nothing about deaths at the dose. Schedules are NCI's codes, taken here to give the interval after Q, in days (D) or hours (H), and the number of doses after X.

Tested on: C3AKF1 mice, hamster liver cystadenocarcinoma s.c., tumor weight T/C
Test: NCI In Vivo Anticancer Drug Screen. Data for tumor model Cystadenocarcinoma, Liver (No. 1) (Hamster) (subcutaneous) in C3AKF1 (CHKRF1) mice
Settings: T/C endpoint: mean tumor weight, schedule: Q01DX010 (ip), vehicle: carboxymethylcellulose (CMC), evaluation day not shown, higher T/C = larger tumour
Protocol: The antitumor activity of compounds was measured in mice bearing transplantable tumors. Survival or tumor size were measured and the results are expressed as the measurement made in the treated group (T) divided by the measurement made in the vehicle treated control group (C). The tumor model used in this assay is Cystadenocarcinoma, Liver (No. 1) (Hamster) (subcutaneous) in C3AKF1 (CHKRF1) mice

SMILES: COc1cccc(N(CCCl)CCCl)c1OC
- T/C (dose: 15.0 mg/kg/injection): 75 % of control [survivor count not shown]
- T/C (dose: 30.0 mg/kg/injection): 87 % of control [survivor count not shown]
- T/C (dose: 60.0 mg/kg/injection): 70 % of control [survivor count not shown]
- T/C (dose: 80.0 mg/kg/injection): 75 % of control [survivor count not shown]

SMILES: ClCCN(CCCl)Cc1nc2ccc(Cl)cc2[nH]1
- T/C (dose: 5.0 mg/kg/injection): 109 % of control [survivor count not shown]
- T/C (dose: 10.0 mg/kg/injection): 130 % of control [survivor count not shown]

SMILES: ClCCN(CCCl)Cc1nc2cc(Cl)c(Cl)cc2[nH]1
- T/C (dose: 12.5 mg/kg/injection): 74 % of control [survivor count not shown]
- T/C (dose: 25.0 mg/kg/injection): 94 % of control [survivor count not shown]
- T/C (dose: 50.0 mg/kg/injection): 114 % of control [survivor count not shown]
- T/C (dose: 100.0 mg/kg/injection): 103 % of control [survivor count not shown]

SMILES: O=C(O)C(=O)Cc1ccc(N(CCCl)CCCl)cc1
- T/C (dose: 6.0 mg/kg/injection): 88 % of control [survivor count not shown]
- T/C (dose: 12.0 mg/kg/injection): 75 % of control [survivor count not shown]

SMILES: Oc1ccc(Cl)cc1CN(CCCl)CCCl
- T/C (dose: 2.5 mg/kg/injection): 129 % of control [survivor count not shown]
- T/C (dose: 5.0 mg/kg/injection): 104 % of control [survivor count not shown]
- T/C (dose: 10.0 mg/kg/injection): 113 % of control [survivor count not shown]
- T/C (dose: 20.0 mg/kg/injection): 105 % of control [survivor count not shown]
